According to patent publication US5756301A, “Endogenous taxol-like substance in human serum, monoclonal antibodies directed thereto and methods of assaying therefor” (The Trustees of Columbia University in the City of New York, priority 1993, dated 1998):
Several values for one entry are separate records, joined by “and”; a condition that tells them apart may be missing. Identical values can stand only once.

Tests used:
rabbit antiserum = settings: plant extracts, ELISA, Jaziri et al.; cited from earlier work
69E4A8E = assay: Measurement of taxol levels in human serum by ELISA using 69E4A8E; design: species or system mouse; settings: for Taxol concentration found: human serum, three duplicate experiments
[1] = tested on: rabbit antitaxol antiserum; assay: Measurement of taxol levels in human serum by RIA using rabbit antitaxol antiserum; settings: duplicate

CC(=O)O[C@H]1C(=O)[C@@]2(C)[C@H]([C@H](OC(=O)c3ccccc3)[C@]3(O)C[C@H](OC(=O)[C@H](O)[C@@H](NC(=O)c4ccccc4)c4ccccc4)C(C)=C1C3(C)C)[C@]1(OC(C)=O)CO[C@@H]1C[C@@H]2O [Taxol]
Lowest amount detected (rabbit antiserum): 23.5 nM and 20 ng/ml
Lower limit of measurements (69E4A8E; human serum diluted 1:5, 69E4A8E): about 50 nM and ~42 ng/ml
Taxol concentration found (69E4A8E; actual taxol 5 uM): 3.61 ± 0.35 µM
Taxol concentration found (69E4A8E; actual taxol printed 100 nM): 0.6 ± 0.144 µM
Taxol concentration found ([1]; actual taxol 5 nM): 5.67 ± 0.64 nM
Taxol concentration found ([1]; actual taxol 10 nM): 11.3 ± 0.5 nM
Taxol concentration found ([1]; actual taxol 50 nM): 32.7 ± 0.3 nM
Taxol concentration found ([1]; actual taxol 500 nM): 476 ± 4 nM
Taxol concentration found ([1]; actual taxol 5 uM): 5870 ± 1000 nM
